Some of the results follow.
How the values were obtained:
Experiment in all cases: log2 fold change, soluble protein after heating vs DMSO (PISA); higher = thermal stabilisation; K562 cells, 10 uM, 30 min; active = over 0.2 and 3.5 SD of the protein, either way, in both replicates (recomputed)
[1] = compound: C1=CC=C(C=C1)[C@H](COC2=CC3=C(C=C2)NC(=O)N3)NC(=O)C4=CC=CN(C4=O)CC5=CC(=C(C=C5)F)F
Summary of the method: (§1)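 K562 cells at 2×10^6 cells/mL were treated with 10 μM compound for 30 min. Aliquots were heated for 3 min across 48°C-58°C, pooled, and extracted in PBS with 0.5% NP-40 at 4°C; soluble protein was the supernatant after 21,000xg for 90 min. Soluble protein was quantified by TMTpro 16plex LC-MS/MS with channel sums equalised, and reported as log2 fold change in thermal stability against DMSO controls, with values from duplicates.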

The chains behind the UniProt entries cited, without tags or fusion partners. Where a name states a change or a piece, a line headed by the entry shows the natural chain unless it says otherwise.
UniProt Q9NQT5, whole entry, looked up: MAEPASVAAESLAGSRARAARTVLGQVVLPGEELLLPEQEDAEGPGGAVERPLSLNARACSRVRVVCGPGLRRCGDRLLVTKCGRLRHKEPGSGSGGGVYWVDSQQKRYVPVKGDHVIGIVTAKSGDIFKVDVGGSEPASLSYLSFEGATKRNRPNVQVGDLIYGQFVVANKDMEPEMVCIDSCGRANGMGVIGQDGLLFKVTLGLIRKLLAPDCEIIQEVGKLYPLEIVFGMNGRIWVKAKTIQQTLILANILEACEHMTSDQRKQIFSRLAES
UniProt P42566: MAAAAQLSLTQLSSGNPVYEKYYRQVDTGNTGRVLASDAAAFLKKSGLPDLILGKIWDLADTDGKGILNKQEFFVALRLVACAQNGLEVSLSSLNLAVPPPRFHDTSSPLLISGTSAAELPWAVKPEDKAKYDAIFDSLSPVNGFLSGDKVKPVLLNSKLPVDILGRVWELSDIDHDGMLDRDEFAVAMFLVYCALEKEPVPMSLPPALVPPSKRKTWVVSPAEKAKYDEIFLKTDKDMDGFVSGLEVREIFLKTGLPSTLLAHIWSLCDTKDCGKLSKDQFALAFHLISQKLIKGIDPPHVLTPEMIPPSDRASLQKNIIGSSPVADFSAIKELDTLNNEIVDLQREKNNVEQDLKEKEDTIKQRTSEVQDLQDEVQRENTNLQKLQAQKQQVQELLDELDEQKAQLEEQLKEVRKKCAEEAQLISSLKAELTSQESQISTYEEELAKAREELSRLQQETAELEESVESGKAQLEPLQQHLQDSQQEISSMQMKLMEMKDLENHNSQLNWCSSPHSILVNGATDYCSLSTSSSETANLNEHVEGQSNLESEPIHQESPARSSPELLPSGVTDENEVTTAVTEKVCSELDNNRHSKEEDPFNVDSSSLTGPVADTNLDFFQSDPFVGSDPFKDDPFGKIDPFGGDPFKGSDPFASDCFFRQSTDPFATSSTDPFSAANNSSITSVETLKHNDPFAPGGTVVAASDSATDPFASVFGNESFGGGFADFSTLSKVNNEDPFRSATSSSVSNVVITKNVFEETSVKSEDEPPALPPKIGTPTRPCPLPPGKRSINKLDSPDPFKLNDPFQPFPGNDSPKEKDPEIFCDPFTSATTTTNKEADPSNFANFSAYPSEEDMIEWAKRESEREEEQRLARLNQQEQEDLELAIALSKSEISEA
UniProt Q7L775: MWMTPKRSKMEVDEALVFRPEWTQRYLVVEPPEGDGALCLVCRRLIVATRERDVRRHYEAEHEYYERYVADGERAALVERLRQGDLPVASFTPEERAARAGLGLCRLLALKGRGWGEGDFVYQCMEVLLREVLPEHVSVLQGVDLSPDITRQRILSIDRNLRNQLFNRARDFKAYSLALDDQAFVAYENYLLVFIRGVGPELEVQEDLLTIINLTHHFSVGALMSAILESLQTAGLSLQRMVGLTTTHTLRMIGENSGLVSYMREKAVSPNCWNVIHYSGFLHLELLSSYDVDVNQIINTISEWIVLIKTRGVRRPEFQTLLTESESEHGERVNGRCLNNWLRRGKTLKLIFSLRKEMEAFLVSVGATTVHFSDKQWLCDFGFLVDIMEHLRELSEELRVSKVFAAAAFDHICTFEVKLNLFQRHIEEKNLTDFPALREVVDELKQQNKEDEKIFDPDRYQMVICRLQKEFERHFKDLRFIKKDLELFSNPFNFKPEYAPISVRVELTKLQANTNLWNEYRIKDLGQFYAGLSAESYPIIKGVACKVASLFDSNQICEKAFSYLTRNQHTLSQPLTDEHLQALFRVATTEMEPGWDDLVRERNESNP
UniProt Q01780: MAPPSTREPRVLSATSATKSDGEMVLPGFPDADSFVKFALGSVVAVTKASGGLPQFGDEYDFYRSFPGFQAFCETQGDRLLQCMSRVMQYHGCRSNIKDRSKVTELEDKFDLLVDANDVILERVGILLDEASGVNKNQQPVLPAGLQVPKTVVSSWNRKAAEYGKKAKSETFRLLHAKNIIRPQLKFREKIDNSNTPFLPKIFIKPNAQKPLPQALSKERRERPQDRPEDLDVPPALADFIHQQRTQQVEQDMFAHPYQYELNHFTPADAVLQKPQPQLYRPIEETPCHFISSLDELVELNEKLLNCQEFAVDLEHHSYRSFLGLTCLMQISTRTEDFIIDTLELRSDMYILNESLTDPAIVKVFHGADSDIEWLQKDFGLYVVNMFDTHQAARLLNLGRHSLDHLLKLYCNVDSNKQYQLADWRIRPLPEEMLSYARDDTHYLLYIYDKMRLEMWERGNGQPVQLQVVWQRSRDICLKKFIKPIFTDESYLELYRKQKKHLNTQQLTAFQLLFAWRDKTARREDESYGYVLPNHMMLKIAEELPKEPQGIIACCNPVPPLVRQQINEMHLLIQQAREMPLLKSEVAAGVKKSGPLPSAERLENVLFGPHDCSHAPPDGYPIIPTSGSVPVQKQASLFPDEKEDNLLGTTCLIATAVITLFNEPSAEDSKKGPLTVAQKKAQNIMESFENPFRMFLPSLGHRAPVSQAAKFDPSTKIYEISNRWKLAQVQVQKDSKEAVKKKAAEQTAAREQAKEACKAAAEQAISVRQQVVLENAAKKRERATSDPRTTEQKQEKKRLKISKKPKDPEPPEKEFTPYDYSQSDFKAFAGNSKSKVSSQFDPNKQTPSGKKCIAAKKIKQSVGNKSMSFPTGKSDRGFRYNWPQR
UniProt Q9NPD3, whole entry, looked up: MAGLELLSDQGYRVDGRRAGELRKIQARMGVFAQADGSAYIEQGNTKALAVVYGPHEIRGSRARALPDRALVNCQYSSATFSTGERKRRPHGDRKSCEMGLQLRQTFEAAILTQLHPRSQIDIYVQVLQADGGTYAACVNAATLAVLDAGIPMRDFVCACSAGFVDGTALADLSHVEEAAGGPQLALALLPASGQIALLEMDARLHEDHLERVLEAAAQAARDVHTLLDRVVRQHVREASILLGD
UniProt Q96RQ1: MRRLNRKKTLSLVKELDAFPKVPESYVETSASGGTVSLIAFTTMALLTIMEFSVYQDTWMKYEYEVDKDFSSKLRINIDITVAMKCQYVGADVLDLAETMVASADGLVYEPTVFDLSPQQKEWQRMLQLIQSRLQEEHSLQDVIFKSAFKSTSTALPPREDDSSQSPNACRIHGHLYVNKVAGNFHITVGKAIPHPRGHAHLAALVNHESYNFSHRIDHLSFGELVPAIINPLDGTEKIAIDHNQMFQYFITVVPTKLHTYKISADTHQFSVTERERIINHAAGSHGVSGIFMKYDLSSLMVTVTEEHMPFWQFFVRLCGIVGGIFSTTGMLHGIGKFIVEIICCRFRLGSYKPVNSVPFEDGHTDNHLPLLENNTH
UniProt O95571: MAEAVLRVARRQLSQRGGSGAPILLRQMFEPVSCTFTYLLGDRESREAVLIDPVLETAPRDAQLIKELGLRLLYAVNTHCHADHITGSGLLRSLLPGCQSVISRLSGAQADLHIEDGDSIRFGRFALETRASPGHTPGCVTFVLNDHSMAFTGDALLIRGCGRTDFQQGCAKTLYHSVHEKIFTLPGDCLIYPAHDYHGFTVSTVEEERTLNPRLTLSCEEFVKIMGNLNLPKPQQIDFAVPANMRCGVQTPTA
UniProt Q9UBQ6: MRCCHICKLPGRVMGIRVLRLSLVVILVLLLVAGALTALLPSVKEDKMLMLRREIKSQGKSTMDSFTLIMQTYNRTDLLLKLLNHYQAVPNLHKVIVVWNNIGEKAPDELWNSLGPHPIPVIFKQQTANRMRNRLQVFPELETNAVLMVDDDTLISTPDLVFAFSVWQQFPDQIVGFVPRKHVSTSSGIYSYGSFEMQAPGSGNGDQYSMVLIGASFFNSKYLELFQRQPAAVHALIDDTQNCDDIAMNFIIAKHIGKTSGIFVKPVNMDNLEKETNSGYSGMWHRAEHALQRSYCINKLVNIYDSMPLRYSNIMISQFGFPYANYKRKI
UniProt P28715: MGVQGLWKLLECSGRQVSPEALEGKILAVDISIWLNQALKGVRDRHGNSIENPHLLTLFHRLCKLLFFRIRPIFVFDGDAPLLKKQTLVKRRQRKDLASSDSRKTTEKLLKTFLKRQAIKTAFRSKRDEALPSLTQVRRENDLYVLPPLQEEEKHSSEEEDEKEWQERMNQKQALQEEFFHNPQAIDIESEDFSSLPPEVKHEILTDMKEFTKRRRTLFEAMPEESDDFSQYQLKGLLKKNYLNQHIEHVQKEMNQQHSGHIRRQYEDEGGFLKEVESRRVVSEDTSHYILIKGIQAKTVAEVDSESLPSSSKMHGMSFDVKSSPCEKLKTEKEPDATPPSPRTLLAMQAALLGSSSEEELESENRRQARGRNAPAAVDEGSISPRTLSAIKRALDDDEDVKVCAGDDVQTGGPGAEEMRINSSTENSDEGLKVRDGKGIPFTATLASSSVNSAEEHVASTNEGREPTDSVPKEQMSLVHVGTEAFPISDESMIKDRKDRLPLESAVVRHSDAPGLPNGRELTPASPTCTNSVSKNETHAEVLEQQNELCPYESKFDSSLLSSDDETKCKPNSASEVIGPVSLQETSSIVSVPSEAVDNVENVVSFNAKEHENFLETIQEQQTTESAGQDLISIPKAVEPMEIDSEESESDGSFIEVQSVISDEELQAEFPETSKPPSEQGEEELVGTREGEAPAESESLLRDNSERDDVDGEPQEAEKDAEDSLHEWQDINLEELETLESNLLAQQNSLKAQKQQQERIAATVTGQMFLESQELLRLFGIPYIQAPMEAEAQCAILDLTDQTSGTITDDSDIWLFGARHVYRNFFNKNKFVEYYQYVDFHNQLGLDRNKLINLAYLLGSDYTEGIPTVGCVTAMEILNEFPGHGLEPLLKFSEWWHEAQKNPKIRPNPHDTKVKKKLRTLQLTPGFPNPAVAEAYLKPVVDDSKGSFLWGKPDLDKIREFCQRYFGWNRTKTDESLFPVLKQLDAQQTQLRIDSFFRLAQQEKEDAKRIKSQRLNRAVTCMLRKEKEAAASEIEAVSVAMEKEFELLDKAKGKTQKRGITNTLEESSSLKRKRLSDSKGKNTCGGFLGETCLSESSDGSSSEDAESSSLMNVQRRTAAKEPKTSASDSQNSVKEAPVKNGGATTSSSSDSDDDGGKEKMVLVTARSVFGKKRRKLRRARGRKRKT
UniProt Q9GZU8: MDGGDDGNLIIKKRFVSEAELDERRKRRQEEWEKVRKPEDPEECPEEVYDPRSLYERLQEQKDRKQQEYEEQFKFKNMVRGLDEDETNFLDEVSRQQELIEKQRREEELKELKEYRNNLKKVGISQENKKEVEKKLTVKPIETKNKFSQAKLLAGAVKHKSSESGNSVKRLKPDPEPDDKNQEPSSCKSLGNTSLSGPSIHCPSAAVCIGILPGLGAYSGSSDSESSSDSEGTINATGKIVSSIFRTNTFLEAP
UniProt P13804: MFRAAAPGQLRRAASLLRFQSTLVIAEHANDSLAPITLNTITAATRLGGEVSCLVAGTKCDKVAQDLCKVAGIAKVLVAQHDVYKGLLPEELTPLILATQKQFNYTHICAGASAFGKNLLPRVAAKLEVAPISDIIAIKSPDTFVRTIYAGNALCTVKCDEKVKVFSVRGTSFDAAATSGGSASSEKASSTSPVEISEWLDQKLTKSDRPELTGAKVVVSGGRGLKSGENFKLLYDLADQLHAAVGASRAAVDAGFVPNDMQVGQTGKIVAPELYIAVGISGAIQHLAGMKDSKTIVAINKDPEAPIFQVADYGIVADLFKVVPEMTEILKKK
UniProt Q96KP1: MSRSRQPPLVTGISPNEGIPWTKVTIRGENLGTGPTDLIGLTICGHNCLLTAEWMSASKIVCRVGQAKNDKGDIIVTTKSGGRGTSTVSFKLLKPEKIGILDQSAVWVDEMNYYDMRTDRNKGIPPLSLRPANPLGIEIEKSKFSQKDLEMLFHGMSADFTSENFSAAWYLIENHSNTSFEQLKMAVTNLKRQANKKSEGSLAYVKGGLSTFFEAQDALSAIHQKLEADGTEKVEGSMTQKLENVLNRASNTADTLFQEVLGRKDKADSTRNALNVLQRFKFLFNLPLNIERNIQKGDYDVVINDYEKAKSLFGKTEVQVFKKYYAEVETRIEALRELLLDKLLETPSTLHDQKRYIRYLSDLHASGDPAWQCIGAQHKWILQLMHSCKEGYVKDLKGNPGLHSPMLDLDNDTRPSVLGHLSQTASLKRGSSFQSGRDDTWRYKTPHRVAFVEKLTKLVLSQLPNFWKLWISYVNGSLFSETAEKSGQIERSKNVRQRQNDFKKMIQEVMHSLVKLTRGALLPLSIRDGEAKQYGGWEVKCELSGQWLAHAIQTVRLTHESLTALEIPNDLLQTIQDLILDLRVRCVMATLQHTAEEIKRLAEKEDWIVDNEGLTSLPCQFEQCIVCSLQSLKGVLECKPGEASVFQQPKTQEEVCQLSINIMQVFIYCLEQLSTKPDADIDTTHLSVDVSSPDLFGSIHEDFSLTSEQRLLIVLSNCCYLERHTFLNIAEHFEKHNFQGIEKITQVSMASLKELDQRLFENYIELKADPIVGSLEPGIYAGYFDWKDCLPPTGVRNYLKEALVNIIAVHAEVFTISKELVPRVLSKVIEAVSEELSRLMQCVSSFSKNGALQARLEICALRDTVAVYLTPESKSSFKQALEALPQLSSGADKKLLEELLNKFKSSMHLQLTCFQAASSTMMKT

[2] = compound: CC1=C(SC2=C1C(=N[C@H](C3=NN=C(N32)C)CC(=O)N)C4=CC=C(C=C4)Cl)C
Summary of the method: as §1

[3] = compound: CC1=C2C(=CC=C1)N=C(N(C2=O)C3=CC=CC=C3C)CN4C=NC5=C(N=CN=C54)N
Summary of the method: as §1

[4] = compound: Cc1sc2c(c1C)C(c1ccc(Cl)cc1)=N[C@@H](CC(=O)OC(C)(C)C)c1nnc(C)n1-2
Summary of the method: as §1

[5] = compound: c1ccc([C@@H]2C[C@H]2NC2CCNCC2)cc1
Summary of the method: as §1

Target	log2 fold change [1]	log2 fold change [2]	log2 fold change [3]	log2 fold change [4]	log2 fold change [5]
EXOC7 (UniProt Q9UPT5)	inactive: -0.063	inactive: -0.001	inactive: 0.035	inactive: 0.07	inactive: -0.014
ERBIN isoform 8 (UniProt Q96RT1)	inactive: -0.011	inactive: 0.06	inactive: 0.116	inactive: 0.002	inactive: 0.002
EXOSC3 (UniProt Q9NQT5)	inactive: -0.02	inactive: -0.041	inactive: 0.01	inactive: -0.002	inactive: -0.022
FADD (UniProt Q13158)	inactive: -0.055	inactive: 0.01	inactive: 0.021	inactive: 0.087	inactive: -0.024
ESF1 (UniProt Q9H501)	inactive: -0.144	–	–	–	–
FAM136A (UniProt Q96C01)	inactive: -0.029	inactive: 0.014	inactive: 0.041	inactive: -0.069	inactive: -0.035
EPS15 (UniProt P42566)	inactive: -0.036	inactive: 0.026	inactive: 0.028	inactive: -0.007	inactive: -0.012
EPM2AIP1 (UniProt Q7L775)	inactive: 0.005	inactive: 0.034	inactive: 0.074	inactive: -0.005	inactive: 0.004
EXOSC10 (UniProt Q01780)	inactive: 0.162	inactive: 0.184	inactive: 0.284	inactive: 0.03	inactive: -0.041
EXOSC4 (UniProt Q9NPD3)	inactive: 0.017	inactive: -0.032	inactive: -0.072	inactive: -0.025	inactive: 0.027
ERGIC2 (UniProt Q96RQ1)	inactive: -0.027	inactive: 0.045	inactive: 0.098	inactive: -0.031	inactive: 0.024
ERI3 (UniProt H0Y4B0)	inactive: 0.029	–	–	–	–
EPN1 isoform 3 (UniProt Q9Y6I3)	inactive: 0.258	–	–	–	–
EPN1 (UniProt Q9Y6I3)	inactive: -0.039	inactive: 0.067	inactive: -0.014	inactive: -0.015	inactive: -0.029
EVC2 (UniProt Q86UK5)	inactive: -0.064	inactive: -0.044	inactive: -0.141	inactive: 0.021	inactive: 0.081
ESYT1 isoform 2 (UniProt Q9BSJ8)	inactive: -0.063	inactive: -0.046	inactive: 0.018	inactive: 0.008	inactive: -0.046
FAM118B (UniProt Q9BPY3)	inactive: -0.276	inactive: -0.01	inactive: 0.208	inactive: -0.019	inactive: -0.009
F9 (UniProt P00740)	inactive: 0.079	inactive: -0.03	inactive: 0.186	inactive: -0.007	inactive: 0.19
ERAP1 isoform 2 (UniProt Q9NZ08)	inactive: 0.052	inactive: -0.026	inactive: 0.011	inactive: -0.037	inactive: -0.012
EXOSC8 (UniProt Q96B26)	inactive: 0.017	inactive: -0.003	inactive: -0.03	inactive: 0.024	inactive: 0.017
ETHE1 (UniProt O95571)	inactive: -0.024	inactive: -0.02	inactive: 0.037	inactive: -0.032	inactive: 0.03
ERLIN1 (UniProt O75477)	inactive: -0.007	inactive: -0.036	inactive: 0.002	inactive: -0.038	inactive: -0.026
EPHX2 (UniProt E5RI53)	inactive: -0.024	–	–	–	–
EXTL2 (UniProt Q9UBQ6)	inactive: 0.028	inactive: 0.106	inactive: 0.003	active: 0.316	inactive: -0.211
ERCC5 (UniProt P28715)	inactive: 0.18	inactive: 0.088	inactive: 0.085	inactive: 0.031	inactive: -0.077
EXOC1 (UniProt Q9NV70)	inactive: -0.095	inactive: 0.021	inactive: 0.121	inactive: 0.027	inactive: -0.075
FAM192A (UniProt Q9GZU8)	inactive: 0.004	inactive: 0	inactive: 0.007	inactive: 0.01	inactive: 0.017
ETFA (UniProt P13804)	inactive: -0.004	inactive: 0.047	inactive: 0.016	inactive: -0.006	inactive: -0.027
EPB41L2 isoform 4 (UniProt O43491)	inactive: 0.005	–	–	–	–
EXOC2 (UniProt Q96KP1)	inactive: -0.054	inactive: 0.025	inactive: 0.03	inactive: 0.033	inactive: 0.011

Quoted at random: 2 entries already listed, in no set order.
Target	log2 fold change [1]	log2 fold change [2]	log2 fold change [3]	log2 fold change [4]	log2 fold change [5]
EXOC7 (UniProt Q9UPT5)	inactive: -0.063	inactive: -0.001	inactive: 0.035	inactive: 0.07	inactive: -0.014
EVC2 (UniProt Q86UK5)	inactive: -0.064	inactive: -0.044	inactive: -0.141	inactive: 0.021	inactive: 0.081

— the supplement of paper PMC10849652
